No constants are given. Whether binding was seen depends on the method and setting. Binding seen in cells or lysates may run through a third protein. Some entries that bind do so weakly or less than the wild type. Sequences can lack the tags named with a protein.

The chains behind the UniProt entries cited, without tags or fusion partners.
UniProt P06748: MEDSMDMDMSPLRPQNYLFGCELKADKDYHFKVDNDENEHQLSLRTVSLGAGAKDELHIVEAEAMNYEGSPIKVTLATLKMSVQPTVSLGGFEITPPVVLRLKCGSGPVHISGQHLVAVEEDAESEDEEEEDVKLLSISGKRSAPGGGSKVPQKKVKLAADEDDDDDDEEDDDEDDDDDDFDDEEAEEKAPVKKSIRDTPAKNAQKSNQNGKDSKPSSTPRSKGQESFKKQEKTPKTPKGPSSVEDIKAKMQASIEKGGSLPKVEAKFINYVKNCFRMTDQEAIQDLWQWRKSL

The target of the assay is nucleophosmin (NPM), endogenous in H1299 transfectants (human (endogenous in H1299)) (UniProt P06748). Nature of the assay: co-IP; total cell extracts of H1299-PG-p53-(WT, 175, 273) cells; sequential co-immunoprecipitation and immunoblotting with nucleophosmin, plakoglobin and p53 antibodies. On the technique in general: In western blotting, separated proteins are transferred to a membrane and probed.

B1: plakoglobin-FLAG, exogenously expressed in H1299 cells (protein, UniProt P14923 1-745)
chain: MEVMNLMEQPIKVTEWQQTYTYDSGIHSGANTCVPSVSSKGIMEEDEACGRQYTLKKTTTYTQGVPPSQGDLEYQMSTTARAKRVREAMCPGVSGEDSSLLLATQVEGQATNLQRLAEPSQLLKSAIVHLINYQDDAELATRALPELTKLLNDEDPVVVTKAAMIVNQLSKKEASRRALMGSPQLVAAVVRTMQNTSDLDTARCTTSILHNLSHHREGLLAIFKSGGIPALVRMLSSPVESVLFYAITTLHNLLLYQEGAKMAVRLADGLQKMVPLLNKNNPKFLAITTDCLQLLAYGNQESKLIILANGGPQALVQIMRNYSYEKLLWTTSRVLKVLSVCPSNKPAIVEAGGMQALGKHLTSNSPRLVQNCLWTLRNLSDVATKQEGLESVLKILVNQLSVDDVNVLTCATGTLSNLTCNNSKNKTLVTQNSGVEALIHAILRAGDKDDITEPAVCALRHLTSRHPEAEMAQNSVRLNYGIPAIVKLLNQPNQWPLVKATIGLIRNLALCPANHAPLQEAAVIPRLVQLLVKAHQDAQRHVAAGTQQPYTDGVRMEEIVEGCTGALHILARDPMNRMEIFRLNTIPLFVQLLYSSVENIQRVAAGVLCELAQDKEAADAIDAEGASAPLMELLHSRNEGTATYAAAVLFRISEDKNPDYRKRVSVELTNSLFKHDPAAWEAAQSMIPINEPYGDDMDATYRPMYSSDVPLDPLEMHMDMDGDYPIDTYSDGLRPPYPTADHMLA
B1: the binding result is listed as “binds”.
